PubChem BioAssay AID1508600 (Functional Genomics Laboratory (NCATS/FGL), 2020)
Out of some 53,000 sequences screened, about 3,700 (7%) were called active.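 How the source made its calls: active means gene knockdowns whose robust z-score for IL-1 alpha signal is at least 2 or at most -2, so actives lie on both sides; inactive means the rest.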 The list shows a part of the results.

assay: Components of the Cytosolic LPS Sensing Pathway: Gene Identification via Genome-wide siRNA Screen; details: RAW264.7 macrophages, IL-1a HTRF, actives lie on both sides, screened at 100 nM (by protocol), cells primed 5 h with Pam3CSK4 first;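 further: robust z of the log signal after scaling to non-targeting control siRNA wells of the plate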
Method in brief: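 Cells (RAW264.7, 1×10^4 per well) were transfected with siRNA at 100 nM and cultured 48h at 37 degrees C. Pam3CSK4 was added for 5 hours; LipidA transfection followed for 24 hour. IL-1a was then measured by HTRF.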

Row | Sequence | z-score
1 | GGACAUCUUUUACCAGGAGTT against Mrps23 | inactive: -1.55
2 | GGAUUCGGACUUCAUAAUCTT against Dpp10 | inactive: 0.256
3 | GGCUUUUGGUCUGAGAUGCTT against Snf8 | active: -2.04
4 | GGAUCUAGAUAAAACUCAATT against Epb41l3 | inactive: 0.425
5 | AACCUUGCCGUUCUAGACATT against Olfr1423 | inactive: -0.526
6 | GGAGACUUACGAACUUCGUTT against Rpl22l1 | inactive: 0.126
7 | CGAUUGCUACGGAUAUUAUTT against Cdkal1 | inactive: 0.0195
8 | GGAAAAAUACUCCAUAUUCTT against Enam | inactive: 0.0353
9 | GGUUGGUGACACAGUGCAATT against Tcl1b2 | inactive: -0.567
10 | CGGCAAUACCAUCAACAAGTT against Chrne | inactive: -0.385
11 | GGCAUCUCCUCGAAUUUAUTT against Theg | inactive: -0.737
12 | CCCGAAUGCAAUCCUUUGGTT against Phgdh | inactive: -0.748
13 | GGAUUUUUACUGGUCAAACTT against Stap1 | inactive: 0.0318
14 | GCAGUUGACAUUUACUCUCTT against Nol10 | active: 2.36
15 | GGAGAAUGAAGAAGAUAAUTT against Taf5l | inactive: 0.222
16 | GGAAAUUGUCAGGUCCUACTT against Rad50 | active: 2.94
17 | GGGCUUCAGUGAAGUUGUCTT against Nat8f3 | inactive: -0.471
18 | GCUCUUUUUACUAUGUCAATT against Col4a3 | inactive: 0.141
19 | GGAGAAAAUUUUGUCACUGTT against Olfr437 | inactive: -0.353
20 | GGAUUCUGAAGUGUAAAGATT against Icos | inactive: -0.764
21 | GCAUAAAAUUGUGUUUCGUTT against Slc39a6 | inactive: 0.208
22 | GGAACGAGACCUGAAAAUUTT against Myh11 | inactive: 0.63

Pulled one by one from the entries so far (2):
Row | Sequence | z-score
19 | GGAGAAAAUUUUGUCACUGTT against Olfr437 | inactive: -0.353
18 | GCUCUUUUUACUAUGUCAATT against Col4a3 | inactive: 0.141

Additional records follow:

Row | Sequence | z-score
23 | GGGAUAACACUCCUGUUUUTT against F630111L10Rik | inactive: -1.06
24 | GGCUUGGGUGCAACUGAAATT against Mrps26 | inactive: -0.608
25 | GCCAUCAACAGCAUUUACATT against Glt8d2 | inactive: -0.455
26 | GCGUAGGUUACGUUCAAGGTT against Ermard | active: 2.74
27 | GGGCUAGCAUCACAGUUUUTT against Tigd3 | active: 2.3
28 | GCCGAUCCAGAUUAUCAACTT against Vps26c | inactive: 1.95
29 | GUGAGAACAAACAGAUAAUTT against Vmn1r4 | inactive: -0.602
30 | GCCUGAUCUCUUCCCAUCATT against Bpifa1 | inactive: -1.62
31 | GGUCAGAGUACCUCAAAGGTT against 4930550L24Rik | inactive: 1.77
32 | GGCUCAGAUGUAUUUCAAATT against Magt1 | inactive: -1.08
33 | GGACACUUUACAGUGAUUGTT against Skint4 | inactive: 1.1
34 | CGUGUAUAAUGGCCAGCUUTT against Lamp1 | inactive: -1.63
35 | GGAGUUUGUCAUCAUGGGCTT against Gpr4 | inactive: 1.01
36 | GCAUGUGCUCCUUUUGUCGTT against Scgb2b27 | inactive: 0.433
37 | GGAGGAGGUUCUUCAGUACTT against Aplp2 | inactive: 0.796
38 | GGCCAAGGAAGAGAUCAUGTT against Ap4s1 | inactive: -0.909
39 | GGGCGAUUAUCUGUGGAAATT against Syt16 | inactive: 1.4
40 | GCACUGAAAGAAUUCGACUTT against Strn3 | inactive: 0.115
41 | GCCCAAUGAUUUCUCUUGUTT against Serpinb3d | inactive: 0.355
42 | GGAACUAACACAUGAGUCUTT against D630004N19Rik | inactive: 1.27
43 | CCAAUCCUGGAAUUGCCGATT against Gnb1l | inactive: -0.962
44 | GGAUGUUGAGGAGUUUUUUTT against Trp53 | inactive: 0.358

Row | Sequence | z-score
45 | CCUAGAGAACUCUACCUGCTT against Rbpms2 | inactive: -0.582
46 | GGGACCGUGCUCUUUAACCTT against Nr0b1 | inactive: 0.648
47 | GGCGAAAAUUACUCGAAAGTT against Penk | inactive: 0.941
48 | GGAUCGAAGCAGAACUGCATT against Hipk3 | inactive: -0.936
49 | GGGUCAAAGAAGGAUACGUTT against Pym1 | inactive: 0.109
50 | GGAGGGUCUUGGAUAUGUGTT against Olfr1337 | inactive: 0.765
51 | GCUUCAGGACGACUUCUACTT against Fzr1 | inactive: 1.46
52 | GGAAACAGAUUUAAAGUGATT against Efcc1 | inactive: 1.03
53 | GGUUUUCACCAUAUGCAGCTT against Zfp353-ps | inactive: 0.267
54 | CCCUGUACGUUGUCUAUAATT against Olfml3 | inactive: 0.305
55 | GGAUAAGAAGAUGAGGCAGTT against Mns1 | inactive: -0.0977
56 | GCCUAUCGAAAAGUCUUGGTT against Adcyap1 | inactive: 0.875
57 | GGUGCAAUCAAAUGGAAUUTT against Nrf1 | active: 3.75
58 | GGUUGUCAAUGAAAUGUGCTT against Cpxm2 | inactive: 1.52
59 | GGAUCACCUAACGUAAUGGTT against Phlda1 | inactive: -1.31
60 | GCGAGAGUGAAAACAUCCATT against Fam78b | inactive: 0.331
61 | GCUCUCACCAUCAGAGAAATT against Trpc4 | inactive: -0.12
62 | GCCCAUUAUGGUUAAAGAATT against Ccnb3 | inactive: -0.311
63 | GCACCACUCUUUGUAAUAUTT against Olfr1046 | inactive: 0.969
64 | GCACUUUCACUGACCUAGATT against Gtf2e1 | inactive: -0.638
65 | GGGCAUGUUUAACGACAUUTT against Csf2ra | inactive: 1.49
66 | GCGACAUAACUGCAUUCAATT against Kcnh1 | active: 2.79

Row | Sequence | z-score
67 | GGAUUUCAAAUGGAAACAATT against Vmn1r45 | inactive: -1.15
68 | CCGUUGAUAUCCACAUGAATT against Plod3 | inactive: 1.97
69 | GGCUCUUGUGGUUUUUGUCTT against Olfr213 | inactive: -0.221
70 | GCUGUAUCUGUGUCAGAACTT against 1700001O22Rik | inactive: -0.367
71 | GCCAUUAGCCUGCUACCUGTT against Ttc36 | inactive: 0.193
72 | GGCGGAUGAACAAAGUUGGTT against Polr1e | inactive: 0.0863
73 | GGAAAAAGAGAAAAAUCGCTT against Slc16a2 | inactive: -0.394
74 | GUCGAUCAACUCUAGGCUCTT against Rpl30 | inactive: 0.487
75 | GGAGGUGAUAAAUAGUGUCTT against Ubox5 | inactive: -0.623
76 | CCAGUUCGAAGACCGUAUUTT against Tceal1 | inactive: 0.517
77 | GGUACUUGGUUUGAGUGGATT against Serpinb8 | inactive: 0.419
78 | GGUGCCACAGUUUACAUUATT against Dhrs1 | inactive: -0.329
79 | GGACCGAUUCCACUUCAAUTT against Crygd | inactive: 1.46
80 | GGGUUACCAACGACAGUGGTT against Cldn11 | inactive: -0.027
81 | GCUUUAUUAACCCAUCAAATT against Wdr78 | inactive: -0.136
82 | GGUCUGGUGGAGUUGAGAATT against Ccdc80 | inactive: -0.617
83 | GGCACAGAAAUUAUGUUCUTT against Slc25a35 | inactive: 1.51
84 | GCAGUCACCUUCAAAAAAATT against Zfp960 | inactive: 1.08
85 | GGAUGUGUCUCACUUCUUGTT against Th | inactive: -1.5
86 | GGUCAUUCAGAUUCUCGGATT against Itpa | inactive: 0.0974
87 | GGAAUUUGUCUCCUGGCCUTT against Olfr1120 | inactive: 1.68
88 | GGAGGAAUUCUUGAAGAUUTT against Ptpn7 | inactive: 0.198

Nos. 29 to 30 of the list above:
Row | Sequence | z-score
29 | GUGAGAACAAACAGAUAAUTT against Vmn1r4 | inactive: -0.602
30 | GCCUGAUCUCUUCCCAUCATT against Bpifa1 | inactive: -1.62

Further results.

Row | Sequence | z-score
89 | GCUUGCUGACCUGAAGUGATT against Krt17 | inactive: 0.262
90 | GGGAAAAAAAAAAAUCACCTT against Syne3 | inactive: -0.254
91 | GGUCUUGGUGUAUAACAACTT against Polr1c | inactive: -0.355
92 | CGUAGCUGCCGUCAACUCUTT against Slc2a5 | inactive: -0.753
93 | GCAGUUCAACACUCAACUUTT against Grpr | inactive: -0.905
94 | GGACAUACAGUGAUGAGGCTT against Rab11fip5 | inactive: 0.246
95 | GGUGUGUUCCCAACUGGUGTT against Olfr1124 | active: 2.04
96 | GCUCUGAUCAUUUGACUUGTT against Ovca2 | inactive: 0.128
97 | CCAAAGCUGAAGAUUUUGGTT against Man1b1 | inactive: 0.834
98 | GGCAAAACUGACGUAAACUTT against Gpx4 | inactive: 1.09
99 | GUUGCCUAUCAUUUGUAGATT against Olfr1052 | inactive: 0.76
100 | GGCAGACAGUCUAACAGAUTT against Krt6a | inactive: 0.283
101 | GGCAAGGACUUCAACAAGATT against Proser2 | inactive: -0.495
102 | GGCCAUAUCGUUCACUCACTT against Slc18a3 | inactive: 1.04
103 | GGUGGUGAUAUUUAUUGUGTT against Olfr1 | inactive: 1.22
104 | GGAAAAGAAAUGAUGGAGUTT against Dnajc9 | inactive: 0.176
105 | GGCCUCAUCAUGUGUUCAATT against App | inactive: -1.24
106 | CGUUAAGAGUCCAAGUGAATT against Nectin4 | inactive: -0.016
107 | GGAGAGGUUUAGUAAUUACTT against Trim21 | inactive: -0.918

Exported as a markdown table: part of the list above.

| Row | Sequence | z-score |
| --- | --- | --- |
| 22 | GGAACGAGACCUGAAAAUUTT against Myh11 | inactive: 0.63 |
| 23 | GGGAUAACACUCCUGUUUUTT against F630111L10Rik | inactive: -1.06 |
| 24 | GGCUUGGGUGCAACUGAAATT against Mrps26 | inactive: -0.608 |
| 25 | GCCAUCAACAGCAUUUACATT against Glt8d2 | inactive: -0.455 |
